PMC3368879
No constants are given. Whether binding was seen depends on the method and setting. In cells and extracts the contact can be indirect. Some binding calls cover weakened binding; strength is not graded here. For some assays here: Where a sequence is shown, tags or fusion partners need not be part of it.

Amino acid sequences for entries named in this document (tags omitted).
UniProt Q8TAF3: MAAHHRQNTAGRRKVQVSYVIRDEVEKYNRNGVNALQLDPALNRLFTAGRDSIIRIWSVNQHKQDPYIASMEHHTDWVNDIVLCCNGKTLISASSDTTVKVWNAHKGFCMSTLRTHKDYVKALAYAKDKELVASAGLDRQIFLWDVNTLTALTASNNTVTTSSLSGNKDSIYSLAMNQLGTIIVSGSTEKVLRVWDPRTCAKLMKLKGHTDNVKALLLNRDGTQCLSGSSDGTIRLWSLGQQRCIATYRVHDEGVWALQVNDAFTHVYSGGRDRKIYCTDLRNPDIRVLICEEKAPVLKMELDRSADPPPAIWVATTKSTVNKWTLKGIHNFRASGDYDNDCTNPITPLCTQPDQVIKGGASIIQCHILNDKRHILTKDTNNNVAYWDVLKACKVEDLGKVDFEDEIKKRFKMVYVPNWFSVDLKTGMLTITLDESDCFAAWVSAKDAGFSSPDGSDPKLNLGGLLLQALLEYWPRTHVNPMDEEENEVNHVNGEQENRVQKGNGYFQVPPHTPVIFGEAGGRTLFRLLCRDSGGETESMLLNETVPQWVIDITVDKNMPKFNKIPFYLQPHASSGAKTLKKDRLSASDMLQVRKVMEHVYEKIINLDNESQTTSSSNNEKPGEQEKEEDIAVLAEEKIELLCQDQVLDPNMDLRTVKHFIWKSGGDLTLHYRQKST

What was measured:
[1] = molecular target: T1, GFP-USP1 (full-length human ubiquitin-specific protease 1, wild type) (human) (UniProt O94782); test: co-IP; anti-GFP immunoprecipitation with GFP-Trap_M from co-transfected 293T cells; immunoblot with anti-GFP and anti-Xpress
T1 sequence: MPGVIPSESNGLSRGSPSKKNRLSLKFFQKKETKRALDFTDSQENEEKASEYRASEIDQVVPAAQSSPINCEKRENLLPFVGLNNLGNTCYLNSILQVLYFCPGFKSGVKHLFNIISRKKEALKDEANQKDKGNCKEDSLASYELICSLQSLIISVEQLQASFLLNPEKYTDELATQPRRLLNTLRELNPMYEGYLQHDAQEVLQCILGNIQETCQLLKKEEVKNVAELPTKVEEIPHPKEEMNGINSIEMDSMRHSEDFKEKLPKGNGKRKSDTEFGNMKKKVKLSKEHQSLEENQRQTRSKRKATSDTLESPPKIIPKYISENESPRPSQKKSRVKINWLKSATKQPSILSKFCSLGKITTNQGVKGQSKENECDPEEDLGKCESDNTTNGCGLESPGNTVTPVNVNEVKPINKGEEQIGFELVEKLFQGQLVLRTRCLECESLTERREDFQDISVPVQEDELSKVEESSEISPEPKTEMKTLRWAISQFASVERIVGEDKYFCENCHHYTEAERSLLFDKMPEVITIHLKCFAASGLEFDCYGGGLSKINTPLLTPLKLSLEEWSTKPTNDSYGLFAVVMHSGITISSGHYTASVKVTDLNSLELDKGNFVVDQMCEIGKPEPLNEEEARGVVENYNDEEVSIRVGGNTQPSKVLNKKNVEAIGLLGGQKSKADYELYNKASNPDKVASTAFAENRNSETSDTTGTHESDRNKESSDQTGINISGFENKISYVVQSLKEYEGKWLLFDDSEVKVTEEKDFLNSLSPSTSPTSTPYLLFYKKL

[2] = molecular target: T2, USP1 Del(420–520) (human) (UniProt O94782); test: as above
T2 sequence: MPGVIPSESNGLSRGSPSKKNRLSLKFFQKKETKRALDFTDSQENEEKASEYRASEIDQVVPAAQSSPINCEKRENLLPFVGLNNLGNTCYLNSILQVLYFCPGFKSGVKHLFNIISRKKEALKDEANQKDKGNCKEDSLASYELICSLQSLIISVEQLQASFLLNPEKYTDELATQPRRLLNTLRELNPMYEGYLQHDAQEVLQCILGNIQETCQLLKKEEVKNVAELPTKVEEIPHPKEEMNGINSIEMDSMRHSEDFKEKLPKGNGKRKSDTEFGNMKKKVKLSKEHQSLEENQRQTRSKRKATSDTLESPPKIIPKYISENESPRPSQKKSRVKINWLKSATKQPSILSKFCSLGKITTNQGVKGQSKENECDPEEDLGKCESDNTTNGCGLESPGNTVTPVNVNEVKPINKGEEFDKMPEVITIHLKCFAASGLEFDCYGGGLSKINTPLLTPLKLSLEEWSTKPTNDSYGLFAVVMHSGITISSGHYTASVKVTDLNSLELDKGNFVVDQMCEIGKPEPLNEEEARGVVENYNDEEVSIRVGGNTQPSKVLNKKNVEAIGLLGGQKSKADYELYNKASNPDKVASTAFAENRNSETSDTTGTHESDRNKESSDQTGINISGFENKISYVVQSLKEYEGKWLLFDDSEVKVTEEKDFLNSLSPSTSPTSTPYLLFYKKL

- binding [1]: binds
- binding [2]: no binding
Substance: Xpress-UAF1 (USP1-associated factor 1) (from UniProt Q8TAF3 1-677)
